{
  "source": "the supplement of paper PMC10077471",
  "note": "The full ranking holds about 1,900 compounds; the median of “excess over highest single agent (ExcessHSA) synergy score, 6x6 matrix” is about -83, and the lowest 2% start at about -370. This is one part of the list.",
  "data": [
    {"tested_on": "NCI-H446", "experiment": "excess over highest single agent (ExcessHSA) synergy score, 6x6 matrix; higher = less synergy (more negative = stronger synergy)", "details": "72 h; CellTiter-Glo viability", "values": [
      {"compound": "NS(=O)(=O)c1cc2c(cc1Cl)NCNS2(=O)=O", "note": "+ Cc1sc2c(c1C)C(c1ccc(Cl)cc1)=N[C@@H](CC(=O)OC(C)(C)C)c1nnc(C)n1-2 [NCGC00250412-19]", "excess over highest single agent": -254},
      {"compound": "CNNCc1ccc(C(=O)NC(C)C)cc1", "note": "+ Cc1sc2c(c1C)C(c1ccc(Cl)cc1)=N[C@@H](CC(=O)OC(C)(C)C)c1nnc(C)n1-2 [NCGC00250412-19]", "excess over highest single agent": -66.9},
      {"compound": "O=c1[nH]c(=O)n([C@H]2C[C@H](O)[C@@H](CO)O2)cc1F", "note": "+ Cc1sc2c(c1C)C(c1ccc(Cl)cc1)=N[C@@H](CC(=O)OC(C)(C)C)c1nnc(C)n1-2 [NCGC00250412-19]", "excess over highest single agent": -390},
      {"compound": "COc1cc(C)c(/C=C/C(C)=C/C=C/C(C)=C/C(=O)O)c(C)c1C", "note": "+ Cc1sc2c(c1C)C(c1ccc(Cl)cc1)=N[C@@H](CC(=O)OC(C)(C)C)c1nnc(C)n1-2 [NCGC00250412-19]", "excess over highest single agent": -122},
      {"compound": "CC(C)(F)C[C@H](N[C@@H](c1ccc(-c2ccc(S(C)(=O)=O)cc2)cc1)C(F)(F)F)C(=O)NC1(C#N)CC1", "note": "+ Cc1sc2c(c1C)C(c1ccc(Cl)cc1)=N[C@@H](CC(=O)OC(C)(C)C)c1nnc(C)n1-2 [NCGC00250412-19]", "excess over highest single agent": 59.5},
      {"compound": "CC(=O)OC[C@H]1O[C@@H](n2ccc(=O)[nH]c2=O)[C@H](OC(C)=O)[C@@H]1OC(C)=O", "note": "+ Cc1sc2c(c1C)C(c1ccc(Cl)cc1)=N[C@@H](CC(=O)OC(C)(C)C)c1nnc(C)n1-2 [NCGC00250412-19]", "excess over highest single agent": -10.4},
      {"compound": "CC1(C)[C@@H](O[C@H]2O[C@H](C(=O)O)[C@@H](O)[C@H](O)[C@H]2O[C@@H]2O[C@H](C(=O)O)[C@@H](O)[C@H](O)[C@H]2O)CC[C@]2(C)[C@H]3C(=O)C=C4[C@@H]5C[C@@](C)(C(=O)O)CC[C@]5(C)CC[C@@]4(C)[C@]3(C)CC[C@@H]12", "note": "+ Cc1sc2c(c1C)C(c1ccc(Cl)cc1)=N[C@@H](CC(=O)OC(C)(C)C)c1nnc(C)n1-2 [NCGC00250412-19]", "excess over highest single agent": 11.5},
      {"compound": "COc1cc2nccc(Oc3ccc(NC(=O)Nc4ccc(F)cc4F)c(F)c3)c2cc1OC", "note": "+ Cc1sc2c(c1C)C(c1ccc(Cl)cc1)=N[C@@H](CC(=O)OC(C)(C)C)c1nnc(C)n1-2 [NCGC00250412-19]", "excess over highest single agent": -106},
      {"compound": "C[C@]12C=CC(=O)C=C1CC[C@@H]1[C@@H]2C(=O)C[C@@]2(C)[C@H]1CC[C@]2(O)C(=O)CO", "note": "+ Cc1sc2c(c1C)C(c1ccc(Cl)cc1)=N[C@@H](CC(=O)OC(C)(C)C)c1nnc(C)n1-2 [NCGC00250412-19]", "excess over highest single agent": -215},
      {"compound": "c1ccc2c(Oc3nc(Nc4ccc(N5CCOCC5)cc4)c4ncn(C5CCCCC5)c4n3)cccc2c1", "note": "+ Cc1sc2c(c1C)C(c1ccc(Cl)cc1)=N[C@@H](CC(=O)OC(C)(C)C)c1nnc(C)n1-2 [NCGC00250412-19]", "excess over highest single agent": -45.5},
      {"compound": "Nc1ncnc2nc(-c3ccc(N4CCOCC4)nc3)cc(-c3cccc(Br)c3)c12", "note": "+ Cc1sc2c(c1C)C(c1ccc(Cl)cc1)=N[C@@H](CC(=O)OC(C)(C)C)c1nnc(C)n1-2 [NCGC00250412-19]", "excess over highest single agent": -45.2},
      {"compound": "COc1cc(NC(=O)c2ccc(-c3ccc(Cl)cc3)o2)cc(OC)c1", "note": "+ Cc1sc2c(c1C)C(c1ccc(Cl)cc1)=N[C@@H](CC(=O)OC(C)(C)C)c1nnc(C)n1-2 [NCGC00250412-19]", "excess over highest single agent": -25.4},
      {"compound": "CS(=O)(=O)Nc1ccc([N+](=O)[O-])cc1Oc1ccccc1", "note": "+ Cc1sc2c(c1C)C(c1ccc(Cl)cc1)=N[C@@H](CC(=O)OC(C)(C)C)c1nnc(C)n1-2 [NCGC00250412-19]", "excess over highest single agent": -31},
      {"compound": "CCn1cc(C(=O)O)c(=O)c2cc(F)c(N3CCNC(C)C3)c(F)c21", "note": "(stereo not drawn) + Cc1sc2c(c1C)C(c1ccc(Cl)cc1)=N[C@@H](CC(=O)OC(C)(C)C)c1nnc(C)n1-2 [NCGC00250412-19]", "excess over highest single agent": -147},
      {"compound": "CCC1=C[C@@H]2CN(C1)Cc1c([nH]c3ccccc13)[C@@](C(=O)OC)(c1cc3c(cc1OC)N(C)[C@H]1[C@@](O)(C(=O)OC)[C@H](OC(C)=O)[C@]4(CC)C=CCN5CC[C@]31[C@@H]54)C2", "note": "+ Cc1sc2c(c1C)C(c1ccc(Cl)cc1)=N[C@@H](CC(=O)OC(C)(C)C)c1nnc(C)n1-2 [NCGC00250412-19]", "excess over highest single agent": -352},
      {"compound": "CC(C)CN(C[C@@H](O)[C@H](Cc1ccccc1)NC(=O)O[C@H]1CCOC1)S(=O)(=O)c1ccc(N)cc1", "note": "+ Cc1sc2c(c1C)C(c1ccc(Cl)cc1)=N[C@@H](CC(=O)OC(C)(C)C)c1nnc(C)n1-2 [NCGC00250412-19]", "excess over highest single agent": -65.5},
      {"compound": "CC(=O)N1CCN(c2ccc(OCc3nn(C)c(C)c3-c3cccc4c(CCCOc5cccc6ccccc56)c(C(=O)O)n(Cc5cccnc5)c34)cc2)CC1", "note": "+ Cc1sc2c(c1C)C(c1ccc(Cl)cc1)=N[C@@H](CC(=O)OC(C)(C)C)c1nnc(C)n1-2 [NCGC00250412-19]", "excess over highest single agent": 97.8},
      {"compound": "COc1ccc2c(c1)CN(C)CC2c1ccc(Cl)c(Cl)c1", "note": "(stereo not drawn) + Cc1sc2c(c1C)C(c1ccc(Cl)cc1)=N[C@@H](CC(=O)OC(C)(C)C)c1nnc(C)n1-2 [NCGC00250412-19]", "excess over highest single agent": -62.7},
      {"compound": "C#C[C@]1(O)C=C[C@H]2[C@@H]3CCC4=CC(=O)CC[C@@H]4[C@H]3CC[C@@]21CC", "note": "+ Cc1sc2c(c1C)C(c1ccc(Cl)cc1)=N[C@@H](CC(=O)OC(C)(C)C)c1nnc(C)n1-2 [NCGC00250412-19]", "excess over highest single agent": -28.3},
      {"compound": "CCn1cc(C(=O)O)c(=O)c2cc(F)c(N3CCN(C)CC3)cc21", "note": "+ Cc1sc2c(c1C)C(c1ccc(Cl)cc1)=N[C@@H](CC(=O)OC(C)(C)C)c1nnc(C)n1-2 [NCGC00250412-19]", "excess over highest single agent": -70.1},
      {"compound": "N#CN=C(NCCCCCCOc1ccc(Cl)cc1)Nc1ccncc1", "note": "+ Cc1sc2c(c1C)C(c1ccc(Cl)cc1)=N[C@@H](CC(=O)OC(C)(C)C)c1nnc(C)n1-2 [NCGC00250412-19]", "excess over highest single agent": -32.9},
      {"compound": "C[C@]12Cc3c[nH]nc3C[C@@H]1CC[C@@H]1[C@@H]2CC[C@@]2(C)[C@H]1CC[C@]2(C)O", "note": "+ Cc1sc2c(c1C)C(c1ccc(Cl)cc1)=N[C@@H](CC(=O)OC(C)(C)C)c1nnc(C)n1-2 [NCGC00250412-19]", "excess over highest single agent": -76.1},
      {"compound": "Nc1nc(-c2nn(Cc3ccccc3F)c3ncccc23)nc(N)c1N1CCOCC1", "note": "+ Cc1sc2c(c1C)C(c1ccc(Cl)cc1)=N[C@@H](CC(=O)OC(C)(C)C)c1nnc(C)n1-2 [NCGC00250412-19]", "excess over highest single agent": -149}
    ]}
  ]
}
